Results published in US20110034551A1, “METHODS OF INCREASING SARCOSINE LEVELS FOR TREATING SCHIZOPHRENIA” (BG MEDICINE, INC., priority 2007, published 2011).
For at least one compound, name, drawing or mass did not settle the structure.

Test system: plasma sarcosine
Experiment: 28-day oral dosing study in rats, plasma sarcosine abundance by Polar LC/MS and GC/MS
Assay type: in vivo, rat
Settings: 100 mg/kg/day for 28 days (compared with 300 mg/kg)
Source text: Fenofibrate (Sigma F-6020, Lot. 064K1584) and MPC-1 (Mitsubishi Pharma Corporation, Lot. F) were used in this study. These test substances were stored at room temperature.
Seventy-three male Crj:CD(SD)IGS rats (4.5 weeks old) were quarantined and acclimated for seven days after receipt. Two days before the initiation of dosing (Day −2), rats which had no abnormalities in clinical observation and body weight during the quarantine and acclimation period were selected and assigned to 5 groups using the stratified-by-weight randomization method to yield approximately the same mean body weights amongst the study groups.
The rats were dosed by oral gavage using a disposable stomach tube connecting to a syringe, at the dose volume of 5 mL/kg. The dosing was conducted once daily for 28 days. A control group was dosed with the vehicle only. Individual doses were calculated based on the most recently recorded body weights.
Preparation of dosing suspensions was as follows. The specified amount of test substance for each dose level was weighed and crushed with an agate mortar and a pestle. […]
Based on the total number of samples, the batches of samples were set up according to a batching scheme. Each sample was analyzed in duplicate. […] Each batch is analyzed in one analytical run. […]
All compounds eluting from the GC/MS column were detected in full scan mode. […]

## CC(C)OC(=O)C(C)(C)Oc1ccc(C(=O)c2ccc(Cl)cc2)cc1 [fenofibrate]
  effect on plasma sarcosine levels: dose-dependent
